Reference: publication PMC7601446, “Significant Decreased Expressions of CaN, VEGF, SLC39A6 and SFRP1 in MDA-MB-231 Xenograft Breast Tumor Mice Treated with Moringa oleifera Leaves and Seed Residue (MOLSr) Extracts” (Nutrients, 2020)
≈ marks a conversion by molar mass, not a printed value.

Columns and labels:
[1] = test system: Colorectal carcinoma cells (HCT-116); test: MTT cell viability assay, HCT-116; type: cell-based; conditions: Homo sapiens, HCT-116, 24 h
[2] = test system: Breast adenocarcinoma cells (MCF-7); test: MTT cell viability assay, MCF-7; type: cell-based; conditions: Homo sapiens, MCF7
Experimental: (§1) Non-malignant Chang’s liver (ATCC® CCL-13), human hepatocellular carcinoma (HepG2) (ATCC® HB-8065™), cervical adenocarcinoma (HeLa) (ATCC® CCL-2™) and human breast adenocarcinoma (MCF-7) (ATCC® HTB-22™) cell lines were maintained in Eagle’s minimum essential medium (ATCC® 30-2003™), respectively (Sigma Aldrich, St Louis, MO, USA). Human colorectal carcinoma (HCT-116) cell lines (ATCC® CCL-247™) were cultured in McCoy’s 5A (ATCC® 30-2007™). […] When the cells reached 70–80% confluency, the cells were detached with phosphate buffer saline (Sigma Aldrich, St Louis, MO, USA), trypsinized with 3 mL of trypsin-EDTA (Nacalai Tesque, Kyoto, Japan) and either seeded in a 96-well plate or sub-cultured.
(§2) The 3-(4,5-dimethylthiazol-2-yl)-2,5-diphenyltetrazolium bromide (MTT) assay is a mitochondrial-based cytotoxic test on cell viability. […] All experiments were conducted in triplicate.

[3] = test system: Non-malignant Chang’s liver cells; test: MTT cell viability assay, Chang's liver cells; type: cell-based
Experimental: as §1, §2

[4] = test system: all the tested cell lines; test: cells; conditions: read-out: IC50 values among all the tested cell lines
[5] = test system: Cervical adenocarcinoma cells (HeLa); test: MTT cell viability assay, HeLa; type: cell-based; conditions: Homo sapiens
[6] = test system: Primary mammary epithelial cells (PMECs); test: MTT cell viability assay, PMECs; type: cell-based; conditions: Homo sapiens
Experimental: All experiments were conducted in triplicate.

[7] = test system: Hepatocellular carcinoma (HepG2); test: MTT cell viability assay, HepG2; type: cell-based; conditions: Homo sapiens
Experimental: as §1, §2

In the case of CC/C(=C(\c1ccccc1)c1ccc(OCCN(C)C)cc1)c1ccccc1 [TAM, tamoxifen], the IC50 [1] is reported as 9 µg/mL (≈ 24.2 µM), the IC50 ([2]; MCF-7, 24 h) is reported as 15.5 µg/mL (≈ 41.7 µM) and the IC50 ([2]; MCF-7, 48 h) is reported as 7.5 µg/mL (≈ 20.2 µM). It also gave an IC50 ([2]; MCF-7, 72 h) of 8 µg/mL (≈ 21.5 µM), an IC50 ([3]; 24 h) of 4 µg/mL (≈ 10.8 µM) and an IC50 ([3]; 48 h) of 6 µg/mL (≈ 16.1 µM). It also gave an IC50 ([3]; 72 h) of 3 µg/mL (≈ 8.07 µM), an IC50 [4] of 3 to 15.5 µg/mL (≈ 8.07 to 41.7 µM) and an IC50 ([5]; 48 h) of 3.5 µg/mL (≈ 9.42 µM). It also gave an IC50 ([5]; 72 h) of 3 µg/mL (≈ 8.07 µM), an IC50 ([6]; 24 h) of 4 µg/mL (≈ 10.8 µM) and an IC50 ([6]; 48 h) of 4 µg/mL (≈ 10.8 µM). For the same compound, the IC50 ([6]; 72 h) was 3 µg/mL (≈ 8.07 µM), the IC50 ([7]; HepG2, 24 h) was 7 µg/mL (≈ 18.8 µM) and the IC50 ([7]; HepG2, 48 h) was 4 µg/mL (≈ 10.8 µM). It also gave an IC50 ([7]; HepG2, 72 h) of 3 µg/mL (≈ 8.07 µM).
